# Results of single-concentration screens

Each number is a percent effect as filed.
The controls that fix the scale are not given in the record; negative values are as filed.
Compounds were drawn at random from those tested, without regard to their results.

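Assay of Toxoplasma gondii numbers, read through their beta-galactosidase reporter with a colour substrate. Tested at 50 µM. Higher reads as fewer parasites (inferred from which compounds were picked for retests). About 18,000 compounds were tested under these conditions; 0.94% (about 170) showed 50% or more at least once.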

Result for NCCC(=O)N1CCC2(CC1)NCCc1nc[nH]c12 was -21.24%.
Result for CCCS(=O)(=O)NCC1CCCN1CCOC (centres unmarked) was 0.2326%.
Result for O=C(CN1C(=O)CC2(CCCCC2)C1=O)NC1CC1 was -7.096%.
Result for CCc1noc(C)c1C(=O)N1CCN(C)CC1 was -15.48%.
Result for Cc1nc(C)c(CC(=O)NCCc2c[nH]cn2)s1 was -6.83%.
Result for CCc1nccn1-c1ccc(CN)cc1 was 2.095%.
Result for O=C(CCC(F)(F)F)Nc1ccc2[nH]nnc2c1 was -1.389%.
Result for Cc1nocc1CN was 2.166%.
Result for CCCN1CCN(Cc2cc(=O)n(C)c(=O)n2C)CC1 was -11.35%.
Result for NC(=O)NCC(=O)Nc1cccc(C2SCCS2)c1 was -5.9%.
Result for CC(C)c1cccc(CN[C@H](CO)C(C)C)n1 was -9.411%.
Result for Cc1ccc(CN(C)CC(=O)N2CCNC2=O)c(C)c1 was 1.396%.
Result for Cc1ccccc1N(C(=O)C(C)C)C1C=CS(=O)(=O)C1 (centres unmarked) was 1.848%.
Result for O=C1CCCN1CCCNCc1cccs1 was 4.585%.
Result for CC(N)(CO)c1ccc(Br)cc1 (centres unmarked) was 5.046%.
Result for Cn1c(=O)oc2ccc(NC(=O)C3COCCN3)cc21 (centres unmarked) was -9.882%.
Result for CS(=O)(=O)NC1CCCN(c2ccc(C#N)nc2)C1 (centres unmarked) was -14.2%.
Result for CN(C)C(=O)N1CCN(c2ncccc2C#N)CC1 was 6.08%.
Result for Cc1ccc(-n2cc(N)nn2)cc1 was -19.12%.
Result for O=C(NC1CCN(C2CC2)CC1)c1cncc(Br)c1 was -15.18%.
Result for CC(C)CC(C)(CN)NS(C)(=O)=O (centres unmarked) was 18.03%.
Result for NC(=O)CCC(F)(F)F was -8.888%.
Result for NC(=O)CN1CCC(NC(=O)NCC2CCCO2)CC1 (centres unmarked) was -19.47%.
Result for CN(C)S(=O)(=O)c1ccc2[nH]c(=O)oc2c1 was -3.679%.
Result for Cc1cscc1C(=O)NCCc1cncn1C was -7.221%.
Result for CC(C)N(CCN(C)C)C(=O)Nc1cccnn1 was -0.8158%.
Result for CC(=O)N1CCc2c(nc[nH]c2=O)C1 was -2.38%.
Result for NC(=O)c1ccc(NC(=O)CSc2ncccn2)cc1 was -1.941%.
Result for CN1CCC(N(C)CC(O)COc2ccccc2)CC1 (centres unmarked) was 22.1%.
Result for CN1CCC(C(=O)NCc2ccc(C#N)cc2)CC1=O (centres unmarked) was -19.74%.
Result for CN1CCN(CCNS(=O)(=O)c2ccccc2)CC1 was -31.86%.
Result for Cn1cncc1CCNC(=O)c1ccncc1F was 8.487%.
Result for CNc1ncc(C(=O)N2CCNCC(O)C2)cn1 (centres unmarked) was 22.72%.
Result for O=C(Cc1cc(F)ccc1F)NCC1CCNC1 (centres unmarked) was -1.235%.
Result for N#CCCNC(=O)CN1CCCC1 was 96.45%.
Result for Cc1cncc(C(=O)NC(CO)CC(C)(C)C)c1 (centres unmarked) was -5.529%.
Result for CC(OC(=O)CNC(=O)C1CC1)C1CC1 (centres unmarked) was -10.42%.
Result for NC1CC(c2cc(NCCc3cn[nH]c3)ncn2)C1 (centres unmarked) was -3.033%.
Result for COCCCN1CCN(CCOC)CC1 was 13.29%.
Result for COc1ccc(CNC(=O)C2CCCN2)cc1 (centres unmarked) was -11.68%.
Result for CCn1cnnc1CNC(=O)c1cc(Cl)c(Cl)n1C was -4.15%.
Result for Cc1cc(Cl)ccc1C(=O)Nc1ccc(C(N)=O)nc1 was -12.01%.
Result for CN(C)CCn1cnc2ccccc21 was 3.688%.
Result for O=C(c1n[nH]c(=O)c2ccccc12)N1CCCCC1 was -3.708%.
Result for COc1ccc2cc(S(N)(=O)=O)ccc2c1 was -13.16%.
Result for COCC1(C(=O)NCCCN(C)c2ccccc2)CC1 was -1.84%.
Result for O=C(NC1CCSCC1)c1ccc(N2CCCC2)nn1 was -1.222%.
Result for COc1ccc(C(O)C2CCNCC2)cc1 (centres unmarked) was -14.89%.
Result for CC(N)c1cc(F)ccc1-n1cccn1 (centres unmarked) was -12.43%.
Result for O=C(CNC1CC1)N[C@@H]1CCOC[C@H]1OCCO was -19.83%.
Result for Cc1ccc(NC(=O)CCN2CCN(C)CC2)cc1 was -10.1%.
Result for O=C(c1ccc(O)cc1F)N1CCOC2(CCCC2)C1 was -4.1%.
Result for Cc1nn(C)cc1NC(=O)NC(C)c1ccccn1 (centres unmarked) was -3.428%.
Result for CCN(Cc1nc(COC)no1)C(=O)c1ccoc1C was -6.733%.
Result for CCCNS(=O)(=O)c1ccc(OCC)nc1 was 2.044%.
Result for NC(=O)CN1CCCC1CCc1ccccc1 (centres unmarked) was 5.481%.
Result for Cc1cnn(CCNCCC(=O)NC(C)C)c1 was 6.726%.

3 of the entries, repeated:

* O=C(CN1C(=O)CC2(CCCCC2)C1=O)NC1CC1 | -7.096%
* CN1CCC(N(C)CC(O)COc2ccccc2)CC1 (centres unmarked) | 22.1%
* NC(=O)c1ccc(NC(=O)CSc2ncccn2)cc1 | -1.941%

The values are deposited in ChEMBL (CHEMBL3988442, “University of Dundee, Small-Polar-MMV Screening Library” (2021)).